The record followed here is PMC5095010.

Protein sequences, listed by entry. Tags and fused reporters are not part of them.
UniProt O15554: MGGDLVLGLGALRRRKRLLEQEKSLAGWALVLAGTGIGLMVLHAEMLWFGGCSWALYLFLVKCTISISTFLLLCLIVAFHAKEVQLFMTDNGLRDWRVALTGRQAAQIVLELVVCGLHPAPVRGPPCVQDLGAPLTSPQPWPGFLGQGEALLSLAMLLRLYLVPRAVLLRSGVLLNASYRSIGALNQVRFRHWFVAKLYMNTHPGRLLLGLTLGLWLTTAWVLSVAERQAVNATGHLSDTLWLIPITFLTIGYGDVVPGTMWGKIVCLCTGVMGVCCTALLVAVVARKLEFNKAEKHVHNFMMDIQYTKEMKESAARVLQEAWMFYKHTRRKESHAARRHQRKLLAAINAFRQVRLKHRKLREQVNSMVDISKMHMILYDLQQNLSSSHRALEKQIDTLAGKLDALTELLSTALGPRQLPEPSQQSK
UniProt P48995: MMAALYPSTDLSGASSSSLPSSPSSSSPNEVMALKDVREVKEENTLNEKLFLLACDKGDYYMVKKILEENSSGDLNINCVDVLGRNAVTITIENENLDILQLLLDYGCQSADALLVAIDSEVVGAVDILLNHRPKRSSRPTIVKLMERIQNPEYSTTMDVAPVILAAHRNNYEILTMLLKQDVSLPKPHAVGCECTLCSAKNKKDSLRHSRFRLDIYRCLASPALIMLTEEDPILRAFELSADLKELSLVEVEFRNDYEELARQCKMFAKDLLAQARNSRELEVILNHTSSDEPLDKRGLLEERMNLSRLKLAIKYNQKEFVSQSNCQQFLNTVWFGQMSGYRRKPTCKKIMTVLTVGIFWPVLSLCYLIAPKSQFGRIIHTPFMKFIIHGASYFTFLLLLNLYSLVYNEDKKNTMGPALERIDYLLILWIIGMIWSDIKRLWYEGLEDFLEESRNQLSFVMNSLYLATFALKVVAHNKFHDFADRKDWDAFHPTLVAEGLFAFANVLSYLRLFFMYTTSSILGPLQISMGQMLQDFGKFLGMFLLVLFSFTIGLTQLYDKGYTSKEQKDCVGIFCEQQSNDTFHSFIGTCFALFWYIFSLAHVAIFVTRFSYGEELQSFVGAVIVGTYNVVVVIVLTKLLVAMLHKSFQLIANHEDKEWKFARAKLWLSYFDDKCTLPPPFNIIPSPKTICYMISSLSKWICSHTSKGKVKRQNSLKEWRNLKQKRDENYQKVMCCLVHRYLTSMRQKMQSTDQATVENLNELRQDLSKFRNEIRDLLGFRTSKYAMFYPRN

No constants are given. Whether binding was seen depends on the method and setting. In cells and extracts the contact can be indirect. Some results given as binding are weak or reduced against the parent protein; the word gives no strength.

For the test, the target named is intermediate-conductance Ca2+-activated K+ channel KCa3.1 (human (endogenous in MCF-7)) (UniProt O15554). The test is described as follows: co-IP; 1 mg MCF-7 lysate in RIPA buffer (1% Triton X-100, 1% sodium deoxycholate, 150 mM NaCl, 50 mM Tris-HCl pH 7.4, 2 mM EDTA), precleared, incubated overnight with 3 ug anti-KCa3.1 antibody, protein A and G magnetic beads; Western blot for TRPC1 and KCa3.1; cells treated or not with 5 mg/ml methyl-beta-cyclodextrin for 24 h (treatment: 52.8% decrease of the pulled-down amount of TRPC1).

In the case of “TRPC1 channel (from UniProt P48995 1-793)”, the binding result is “binds”.
